Measured values: the supplement of paper PMC10849652
The other results are listed elsewhere or left out.

The chains behind the UniProt entries cited, without tags or fusion partners. Where a name states a change or a piece, a line headed by the entry shows the natural chain unless it says otherwise.
UniProt O60347: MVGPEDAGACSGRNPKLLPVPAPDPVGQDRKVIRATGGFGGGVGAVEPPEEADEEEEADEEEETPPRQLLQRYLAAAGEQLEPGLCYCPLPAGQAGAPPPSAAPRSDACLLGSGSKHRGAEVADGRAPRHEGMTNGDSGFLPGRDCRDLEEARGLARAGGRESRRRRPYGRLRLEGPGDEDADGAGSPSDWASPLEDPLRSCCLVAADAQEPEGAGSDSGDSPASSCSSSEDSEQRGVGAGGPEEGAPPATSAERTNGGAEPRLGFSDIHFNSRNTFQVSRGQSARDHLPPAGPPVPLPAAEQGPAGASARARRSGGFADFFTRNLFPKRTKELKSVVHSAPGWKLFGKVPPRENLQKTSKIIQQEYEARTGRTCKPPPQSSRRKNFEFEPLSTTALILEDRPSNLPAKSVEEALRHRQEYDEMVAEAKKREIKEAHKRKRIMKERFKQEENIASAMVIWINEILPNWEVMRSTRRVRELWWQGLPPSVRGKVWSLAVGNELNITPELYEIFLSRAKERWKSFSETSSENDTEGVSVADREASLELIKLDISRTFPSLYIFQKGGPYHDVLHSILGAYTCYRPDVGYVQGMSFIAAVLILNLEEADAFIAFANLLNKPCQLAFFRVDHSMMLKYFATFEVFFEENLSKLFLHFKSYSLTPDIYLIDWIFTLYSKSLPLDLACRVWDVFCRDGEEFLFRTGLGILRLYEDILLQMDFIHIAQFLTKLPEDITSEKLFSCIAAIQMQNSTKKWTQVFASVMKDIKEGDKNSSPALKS
UniProt Q6UWL2: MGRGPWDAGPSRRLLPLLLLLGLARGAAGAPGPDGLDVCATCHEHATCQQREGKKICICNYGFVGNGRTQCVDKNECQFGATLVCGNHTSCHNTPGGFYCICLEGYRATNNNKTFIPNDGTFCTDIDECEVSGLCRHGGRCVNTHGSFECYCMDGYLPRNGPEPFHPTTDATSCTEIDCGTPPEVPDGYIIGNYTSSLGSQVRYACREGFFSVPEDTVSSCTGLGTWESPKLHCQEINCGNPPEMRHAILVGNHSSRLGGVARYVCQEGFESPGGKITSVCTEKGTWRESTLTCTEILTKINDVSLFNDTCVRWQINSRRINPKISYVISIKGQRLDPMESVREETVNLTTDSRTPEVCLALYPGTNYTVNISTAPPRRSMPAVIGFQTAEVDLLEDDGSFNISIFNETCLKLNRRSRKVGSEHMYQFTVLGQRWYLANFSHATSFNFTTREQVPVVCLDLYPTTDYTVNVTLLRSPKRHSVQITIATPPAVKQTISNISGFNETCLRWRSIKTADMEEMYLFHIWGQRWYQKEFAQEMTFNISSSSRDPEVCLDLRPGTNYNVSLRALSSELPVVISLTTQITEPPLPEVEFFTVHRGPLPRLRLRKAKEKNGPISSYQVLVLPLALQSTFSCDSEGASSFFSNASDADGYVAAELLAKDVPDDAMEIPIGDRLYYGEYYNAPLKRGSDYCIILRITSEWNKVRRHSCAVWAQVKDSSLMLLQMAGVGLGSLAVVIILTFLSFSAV
UniProt Q8TDR2: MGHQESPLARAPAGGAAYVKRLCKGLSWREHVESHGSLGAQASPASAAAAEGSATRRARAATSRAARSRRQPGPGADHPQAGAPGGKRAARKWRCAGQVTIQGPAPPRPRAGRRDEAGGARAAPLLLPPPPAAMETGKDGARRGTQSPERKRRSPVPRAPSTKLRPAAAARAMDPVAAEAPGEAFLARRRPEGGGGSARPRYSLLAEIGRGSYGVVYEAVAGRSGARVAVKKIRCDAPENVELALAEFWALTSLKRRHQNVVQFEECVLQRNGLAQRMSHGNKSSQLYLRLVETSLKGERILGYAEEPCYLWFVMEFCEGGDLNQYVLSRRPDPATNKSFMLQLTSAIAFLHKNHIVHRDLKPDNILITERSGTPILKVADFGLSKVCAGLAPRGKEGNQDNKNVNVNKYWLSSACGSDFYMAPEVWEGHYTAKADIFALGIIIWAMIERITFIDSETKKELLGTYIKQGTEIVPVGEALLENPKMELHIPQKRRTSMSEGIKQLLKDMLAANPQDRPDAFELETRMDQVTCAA
UniProt Q13033: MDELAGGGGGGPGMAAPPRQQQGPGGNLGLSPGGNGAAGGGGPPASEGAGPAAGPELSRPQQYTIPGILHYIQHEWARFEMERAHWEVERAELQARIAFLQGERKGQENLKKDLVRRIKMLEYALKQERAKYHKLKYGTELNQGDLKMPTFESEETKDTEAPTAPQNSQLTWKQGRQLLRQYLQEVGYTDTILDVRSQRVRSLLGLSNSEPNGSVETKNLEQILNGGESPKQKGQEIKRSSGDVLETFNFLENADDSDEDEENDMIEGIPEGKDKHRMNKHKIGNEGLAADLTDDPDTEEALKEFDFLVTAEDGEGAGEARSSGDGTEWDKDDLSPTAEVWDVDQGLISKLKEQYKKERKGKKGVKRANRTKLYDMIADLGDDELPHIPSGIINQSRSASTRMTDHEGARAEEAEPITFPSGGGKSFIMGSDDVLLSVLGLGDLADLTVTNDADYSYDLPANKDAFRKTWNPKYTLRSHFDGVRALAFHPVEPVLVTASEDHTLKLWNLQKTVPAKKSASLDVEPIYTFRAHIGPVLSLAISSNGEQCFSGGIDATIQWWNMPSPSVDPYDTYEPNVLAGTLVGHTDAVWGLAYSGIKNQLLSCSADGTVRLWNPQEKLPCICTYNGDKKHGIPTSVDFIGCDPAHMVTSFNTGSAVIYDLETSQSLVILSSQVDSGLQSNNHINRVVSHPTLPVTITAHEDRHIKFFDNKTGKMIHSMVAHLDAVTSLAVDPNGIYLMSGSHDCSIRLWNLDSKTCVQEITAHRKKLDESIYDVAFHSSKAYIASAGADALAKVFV
UniProt Q9NYJ8: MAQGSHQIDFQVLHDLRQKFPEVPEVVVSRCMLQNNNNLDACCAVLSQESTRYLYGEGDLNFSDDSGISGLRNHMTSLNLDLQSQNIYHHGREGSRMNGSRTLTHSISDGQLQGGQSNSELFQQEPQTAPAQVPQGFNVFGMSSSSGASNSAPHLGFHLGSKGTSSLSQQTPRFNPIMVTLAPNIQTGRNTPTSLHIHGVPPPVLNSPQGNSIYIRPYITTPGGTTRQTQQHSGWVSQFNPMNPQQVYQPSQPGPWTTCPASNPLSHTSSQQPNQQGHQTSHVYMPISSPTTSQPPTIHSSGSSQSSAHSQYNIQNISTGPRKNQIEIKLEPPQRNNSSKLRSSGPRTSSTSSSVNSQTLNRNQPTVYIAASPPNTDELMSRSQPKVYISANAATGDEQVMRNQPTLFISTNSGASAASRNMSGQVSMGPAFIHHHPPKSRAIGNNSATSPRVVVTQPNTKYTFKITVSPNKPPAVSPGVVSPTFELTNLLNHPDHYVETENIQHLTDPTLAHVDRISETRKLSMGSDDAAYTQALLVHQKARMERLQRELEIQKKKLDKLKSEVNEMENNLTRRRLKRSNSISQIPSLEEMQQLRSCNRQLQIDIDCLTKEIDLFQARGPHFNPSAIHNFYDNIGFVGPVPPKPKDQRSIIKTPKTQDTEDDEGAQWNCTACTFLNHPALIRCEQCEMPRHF
UniProt Q9Y6J9: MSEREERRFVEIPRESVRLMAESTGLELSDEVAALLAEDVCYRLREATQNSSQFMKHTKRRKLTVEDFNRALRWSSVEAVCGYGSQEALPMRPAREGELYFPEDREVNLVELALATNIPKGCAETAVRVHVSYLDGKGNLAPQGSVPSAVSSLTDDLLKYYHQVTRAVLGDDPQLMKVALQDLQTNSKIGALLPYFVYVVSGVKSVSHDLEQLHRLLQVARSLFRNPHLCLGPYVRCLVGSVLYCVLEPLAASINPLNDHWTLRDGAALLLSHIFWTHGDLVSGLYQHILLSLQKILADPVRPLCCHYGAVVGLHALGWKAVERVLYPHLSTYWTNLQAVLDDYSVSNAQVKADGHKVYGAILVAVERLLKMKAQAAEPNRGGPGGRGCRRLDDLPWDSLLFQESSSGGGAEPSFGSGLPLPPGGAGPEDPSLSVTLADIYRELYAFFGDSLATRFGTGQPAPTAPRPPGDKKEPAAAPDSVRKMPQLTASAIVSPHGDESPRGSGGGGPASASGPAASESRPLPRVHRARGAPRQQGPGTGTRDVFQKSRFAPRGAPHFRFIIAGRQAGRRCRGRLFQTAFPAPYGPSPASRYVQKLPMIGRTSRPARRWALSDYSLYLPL
UniProt Q16514: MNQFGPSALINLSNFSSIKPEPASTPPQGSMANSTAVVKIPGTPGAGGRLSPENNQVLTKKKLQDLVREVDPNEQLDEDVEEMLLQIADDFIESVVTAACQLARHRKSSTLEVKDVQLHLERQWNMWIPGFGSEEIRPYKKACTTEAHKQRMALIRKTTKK
UniProt Q15543, whole entry, looked up: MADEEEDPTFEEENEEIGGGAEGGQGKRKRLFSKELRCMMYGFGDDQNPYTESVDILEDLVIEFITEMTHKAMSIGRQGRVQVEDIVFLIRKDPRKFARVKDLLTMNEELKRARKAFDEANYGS
UniProt Q15544, whole entry, looked up: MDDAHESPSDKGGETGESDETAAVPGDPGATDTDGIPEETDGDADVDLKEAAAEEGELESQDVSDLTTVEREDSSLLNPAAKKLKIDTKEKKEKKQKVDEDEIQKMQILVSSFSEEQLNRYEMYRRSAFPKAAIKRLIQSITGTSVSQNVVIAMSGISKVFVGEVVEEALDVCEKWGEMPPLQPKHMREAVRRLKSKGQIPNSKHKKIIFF
UniProt Q96C24: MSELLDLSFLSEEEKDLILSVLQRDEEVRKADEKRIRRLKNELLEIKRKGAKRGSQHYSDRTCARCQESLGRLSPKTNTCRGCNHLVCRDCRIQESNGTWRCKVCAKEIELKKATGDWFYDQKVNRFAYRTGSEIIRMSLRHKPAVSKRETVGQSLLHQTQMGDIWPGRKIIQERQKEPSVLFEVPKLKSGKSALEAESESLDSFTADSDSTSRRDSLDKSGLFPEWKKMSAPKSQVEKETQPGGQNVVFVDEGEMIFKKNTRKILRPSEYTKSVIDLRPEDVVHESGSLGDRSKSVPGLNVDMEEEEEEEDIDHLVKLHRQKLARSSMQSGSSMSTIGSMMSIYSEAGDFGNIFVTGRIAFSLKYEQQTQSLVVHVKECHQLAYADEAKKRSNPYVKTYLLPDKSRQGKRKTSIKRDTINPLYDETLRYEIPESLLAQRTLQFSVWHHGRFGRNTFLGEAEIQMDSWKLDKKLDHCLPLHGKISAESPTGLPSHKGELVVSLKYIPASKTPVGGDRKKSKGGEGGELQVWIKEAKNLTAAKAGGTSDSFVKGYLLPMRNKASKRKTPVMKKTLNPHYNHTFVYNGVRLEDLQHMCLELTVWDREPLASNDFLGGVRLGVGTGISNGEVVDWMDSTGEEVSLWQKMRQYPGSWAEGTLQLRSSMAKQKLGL
UniProt Q8WUJ0: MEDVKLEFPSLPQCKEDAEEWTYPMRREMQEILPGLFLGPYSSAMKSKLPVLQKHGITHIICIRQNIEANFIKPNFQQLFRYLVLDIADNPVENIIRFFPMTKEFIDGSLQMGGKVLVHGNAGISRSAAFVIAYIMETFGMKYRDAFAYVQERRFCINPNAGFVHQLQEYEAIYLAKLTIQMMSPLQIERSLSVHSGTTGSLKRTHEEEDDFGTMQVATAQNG
UniProt Q13188: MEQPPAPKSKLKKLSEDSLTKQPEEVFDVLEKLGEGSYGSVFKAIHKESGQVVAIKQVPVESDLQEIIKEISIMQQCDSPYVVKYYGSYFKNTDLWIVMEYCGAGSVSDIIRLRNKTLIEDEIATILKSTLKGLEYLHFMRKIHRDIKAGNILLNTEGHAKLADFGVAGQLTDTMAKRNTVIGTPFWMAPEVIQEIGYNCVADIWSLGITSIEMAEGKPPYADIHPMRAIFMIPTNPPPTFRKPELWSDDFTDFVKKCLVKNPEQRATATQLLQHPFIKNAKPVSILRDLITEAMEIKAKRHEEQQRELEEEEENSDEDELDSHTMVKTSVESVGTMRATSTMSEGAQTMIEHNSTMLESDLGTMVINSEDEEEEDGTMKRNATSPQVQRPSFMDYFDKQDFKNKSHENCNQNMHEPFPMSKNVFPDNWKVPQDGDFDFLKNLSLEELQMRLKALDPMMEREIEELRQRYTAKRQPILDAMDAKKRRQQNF
UniProt Q12962, whole entry, looked up: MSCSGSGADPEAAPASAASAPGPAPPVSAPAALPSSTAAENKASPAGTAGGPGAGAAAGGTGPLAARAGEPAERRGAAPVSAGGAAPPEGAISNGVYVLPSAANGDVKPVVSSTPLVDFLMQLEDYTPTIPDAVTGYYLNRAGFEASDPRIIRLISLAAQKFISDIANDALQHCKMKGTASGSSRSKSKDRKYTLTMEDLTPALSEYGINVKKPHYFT
UniProt Q1ZZU3: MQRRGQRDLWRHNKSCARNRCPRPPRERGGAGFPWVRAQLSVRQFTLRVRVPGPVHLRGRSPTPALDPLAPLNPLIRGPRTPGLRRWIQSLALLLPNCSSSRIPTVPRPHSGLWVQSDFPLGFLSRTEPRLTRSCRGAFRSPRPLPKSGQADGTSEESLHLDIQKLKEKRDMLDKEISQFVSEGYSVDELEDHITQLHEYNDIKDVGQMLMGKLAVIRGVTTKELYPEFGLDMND

Tests used:
Test in all cases: log2 fold change, soluble protein after heating vs DMSO (PISA); higher = thermal stabilisation; K562 cells, 10 uM, 30 min; active = over 0.2 and 3.5 SD of the protein, either way, in both replicates (recomputed)
[1] = compound: CC1=C(SC2=C1C(=N[C@H](C3=NN=C(N32)C)CC(=O)N)C4=CC=C(C=C4)Cl)C
How it was run: (§1)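 Aliquots of K562 cells (2×10^6 cells/mL) treated with 10 μM compound for 30 min were heated for 3 min over 48°C-58°C. After pooling and extraction in PBS with 0.5% NP-40 at 4°C, soluble protein from a 21,000xg, 90 min spin was quantified by TMTpro 16plex LC-MS/MS with channel sums equalised. Thermal stability is expressed against control samples, from duplicates, as a log2 fold change.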

[2] = compound: CC1=C2C(=CC=C1)N=C(N(C2=O)C3=CC=CC=C3C)CN4C=NC5=C(N=CN=C54)N
How it was run: as §1

[3] = compound: Cc1sc2c(c1C)C(c1ccc(Cl)cc1)=N[C@@H](CC(=O)OC(C)(C)C)c1nnc(C)n1-2
How it was run: as §1

[4] = compound: c1ccc([C@@H]2C[C@H]2NC2CCNCC2)cc1
How it was run: as §1

[5] = compound: C1=CC=C(C=C1)[C@H](COC2=CC3=C(C=C2)NC(=O)N3)NC(=O)C4=CC=CN(C4=O)CC5=CC(=C(C=C5)F)F
How it was run: as §1

Measured: log2 fold change

TBC1D12 (UniProt O60347)
inactive: [1] 0.148 | [2] -0.219 | [3] -0.047 | [4] -0.151

TALDO1 (UniProt P37837)
inactive: [5] -0.067 | [1] 0.027 | [2] 0.011 | [3] -0.006 | [4] -0.063

SUSD1 isoform 2 (UniProt Q6UWL2)
inactive: [5] 0.022 | [1] 0.006 | [2] 0.088 | [4] 0.006

SUMF1 isoform 3 (UniProt Q8NBK3)
inactive: [2] -0.062 | [3] 0.034

STK35 (UniProt Q8TDR2)
inactive: [1] -0.016 | [4] -0.015

TAF4 (UniProt O00268)
inactive: [5] 0.01 | [2] 0.133 | [3] -0.093

STON2 isoform 3 (UniProt Q8WXE9)
inactive: [3] 0.113

SYNJ2 (UniProt O15056)
inactive: [5] 0.06 | [2] 0.046

TAOK2 (UniProt Q9UL54)
inactive: [3] 0.026

SYK (UniProt P43405)
inactive: [5] 0.21 | [1] -0.221 | [2] -0.041 | [3] 0.132 | [4] -0.105

TANGO6 (UniProt Q9C0B7)
inactive: [5] -0.139 | [1] 0.052 | [3] 0.018 | [4] -0.086

STRN3 (UniProt Q13033)
inactive: [5] 0.016 | [1] 0.006 | [2] 0.013 | [3] 0.001 | [4] 0.002

TAB2 (UniProt Q9NYJ8)
inactive: [2] 0.115 | [3] 0.031

TAF6L (UniProt Q9Y6J9)
inactive: [1] -0.209 | [3] 0.048 | [4] 0.073

SUN1 isoform 9 (UniProt O94901)
inactive: [1] -0.114 | [2] 0.013 | [3] 0.109 | [4] 0.018

TAF12 (UniProt Q16514)
inactive: [5] -0.059 | [2] -0.086 | [3] -0.059

2 entries drawn at random from the list so far:
TAF12 (UniProt Q16514)
inactive: [5] -0.059 | [2] -0.086 | [3] -0.059

TANGO6 (UniProt Q9C0B7)
inactive: [5] -0.139 | [1] 0.052 | [3] 0.018 | [4] -0.086

Next results follow:

STK4 (UniProt Q13043)
inactive: [5] -0.008 | [1] 0.088 | [2] 0.057 | [3] 0.005 | [4] -0.001

TAF13 (UniProt Q15543)
inactive: [2] 0.14 | [3] -0.261

SUMF2 (UniProt Q8NBJ7)
inactive: [5] 0 | [1] 0.002 | [2] -0.019 | [3] -0.004 | [4] -0.002

STOML1 (UniProt Q9UBI4)
inactive: [2] 0.21 | [3] 0.004

SYNGR1 isoform 3 (UniProt O43759)
inactive: [3] -0.095

TAF11 (UniProt Q15544)
inactive: [5] -0.025 | [1] -0.073 | [3] 0.007 | [4] 0.149

SYTL4 (UniProt Q96C24)
inactive: [5] -0.057 | [1] 0.014 | [3] 0.03 | [4] 0.028

SUPT5H isoform 2 (UniProt O00267)
inactive: [2] -0.015

SUGT1 isoform 2 (UniProt Q9Y2Z0)
inactive: [5] 0.011 | [2] 0.042 | [3] 0.037

STYX (UniProt Q8WUJ0)
inactive: [3] -0.082

SULT1A1 (UniProt P50225)
inactive: [5] -0.083 | [1] 0.064 | [2] -0.021 | [3] -0.06 | [4] -0.066

STK3 isoform 2 (UniProt Q13188)
inactive: [5] 0.038 | [1] 0.015 | [2] 0.001 | [3] -0.013 | [4] 0.025

TAF10 (UniProt Q12962)
inactive: [5] 0.026 | [1] -0.051 | [2] -0.098 | [3] -0.056 | [4] 0.018

SWI5 (UniProt Q1ZZU3)
inactive: [5] 0.076 | [1] 0.103 | [2] 0.167 | [4] -0.062
